Publication PMC7819943, “Rice protein-binding microarrays: a tool to detect cis-acting elements near promoter regions in rice”
The other results are listed elsewhere or left out.

Chains of the proteins cited; added tags and fusions are not shown.
UniProt Q0JBA9, entry or part of it: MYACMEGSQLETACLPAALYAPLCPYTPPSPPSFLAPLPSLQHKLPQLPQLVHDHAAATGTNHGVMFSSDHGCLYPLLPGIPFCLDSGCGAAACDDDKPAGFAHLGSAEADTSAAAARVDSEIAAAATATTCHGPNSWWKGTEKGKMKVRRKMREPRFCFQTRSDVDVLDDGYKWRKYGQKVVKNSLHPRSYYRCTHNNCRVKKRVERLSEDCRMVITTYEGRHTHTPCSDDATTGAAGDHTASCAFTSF

Molecular target: OsWRKY34 (Oryza sativa, UniProt Q0JBA9 1-250)
Assay: protein-binding microarray (RPBM); PBS, 2% BSA, 51.3 ng/ul salmon testes DNA, 50 uM zinc acetate, 200 nM TF, 25 C, 1 h; high values mean tight binding
Conditions: protein: recombinant; tags: N-terminal polyhistidine and DsRed monomer fusion (pET32a); label: CyDye5-dUTP incorporated in the synthesized complementary strand; 3' TTTTT single-stranded linker to array surface; dsDNA, one strand shown
Summary of the method: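 Binding signal is reported as fluorescence intensity per feature (arbitrary units) from an Axon 4000B scanner. Incubation used 200 nM of each Ni–NTA-purified, N-terminally polyhistidine- and DsRed-fused transcription factor from E. coli BL21-CodonPlus on a double-stranded custom Agilent array for 1 h at 25 °C, with 50 µM zinc acetate in the buffer, followed by washing.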

Sequence | binding signal
GTAGTGGTTGGATCTGCGATTTTGGAATTTTTTTGAGGGGCGGAGTCACCTAGTGCAG | 10200 fluorescence intensity (a.u.)
ACATGGTGACATACTTTTTCTAATGCTGTTTCATCTTATTCGGAGTCACCTAGTGCAG | 15000 fluorescence intensity (a.u.)
GAGGTCACACGAGAGAAGGGCCCTCAGTGCTCTCATTGACCGGAGTCACCTAGTGCAG | 9910 fluorescence intensity (a.u.)
AATATATTTAGTTTTGGACTCGTTTGTTCCTCTCACCATCCGGAGTCACCTAGTGCAG | 8100 fluorescence intensity (a.u.)
CAGCCGCTCGCCTCGTTGCTCCCGTGCTGTGCTCTGCTCACGGAGTCACCTAGTGCAG | 9030 fluorescence intensity (a.u.)
CATCCCCTCTGTTACGACCGCTCATTCTCTCGTCTCTCAGCGGAGTCACCTAGTGCAG | 9420 fluorescence intensity (a.u.)
GAATTAACGGCCGATCGATCTAACCTCACCAAGTTAACCTCGGAGTCACCTAGTGCAG | 8760 fluorescence intensity (a.u.)
TCTTAAAATTTTGGCCTTGTTTACTTCCTTGCCATTCTCACGGAGTCACCTAGTGCAG | 12000 fluorescence intensity (a.u.)
GCGTGCGTCAGATCGCCTGTCGCCACCTAACCCGCGATCTCGGAGTCACCTAGTGCAG | 8940 fluorescence intensity (a.u.)
TCCTCTGTTCTCCTTCTCTGTTCCATTGCTAGCAAAATAACGGAGTCACCTAGTGCAG | 8480 fluorescence intensity (a.u.)
GATGTGGATTTGGGATGTTAATTTGATTTGGGATTTGGGGCGGAGTCACCTAGTGCAG | 10600 fluorescence intensity (a.u.)
TATTTCGTTTATCTATCAATTTCTTGACTGAAGATACTGTCGGAGTCACCTAGTGCAG | 8610 fluorescence intensity (a.u.)
TATTTTCGCAATCCTTTGCAATTTCTTGGATTCTTCAGTACGGAGTCACCTAGTGCAG | 8810 fluorescence intensity (a.u.)
CACTCACTTCTACCTACTTTCTTAATAACAATGTCCAACTCGGAGTCACCTAGTGCAG | 10100 fluorescence intensity (a.u.)
CTATCATTCATACTTCGGTCTACCATGTGTTTATTTGAAGCGGAGTCACCTAGTGCAG | 11100 fluorescence intensity (a.u.)
ATGGCAACAGCAGCAGCCGTACGTTGCCGTCGCCGTCACGCGGAGTCACCTAGTGCAG | 9970 fluorescence intensity (a.u.)
GACTGTACCTTCAAAATTTTGACGGATGTCACCCGAGTACCGGAGTCACCTAGTGCAG | 8520 fluorescence intensity (a.u.)
CCTCCTCACAACCGCATGTCGCCGATTCCCTGCCGCATCTCGGAGTCACCTAGTGCAG | 9980 fluorescence intensity (a.u.)
AGCATTTCCTGACCCTATTATCATTCGTATTTAGTCTGCCCGGAGTCACCTAGTGCAG | 11400 fluorescence intensity (a.u.)
CTGCTAGCCCGGTTAATCTACCAAAACCCGTCTTGATTTACGGAGTCACCTAGTGCAG | 9070 fluorescence intensity (a.u.)
GGCCGGCTGGTTACCATTCTCTCTCTTCTACCCAATTCAACGGAGTCACCTAGTGCAG | 9120 fluorescence intensity (a.u.)

Sequence | binding signal
TGTTATGTATACACAGATTACTCAAAATTGTTGTACTGTCCGGAGTCACCTAGTGCAG | 8040 fluorescence intensity (a.u.)
CCCACCCACCACCCACGAATTCTTGCACTACACATCAGATCGGAGTCACCTAGTGCAG | 9560 fluorescence intensity (a.u.)
TCCCTCCCGTCTCGTCTCCGCTCATTGCGCCATCTCGCGCCGGAGTCACCTAGTGCAG | 8660 fluorescence intensity (a.u.)
GATCAATATTGTGTGACTTTTTTAAACCTGCCTGCTTATTCGGAGTCACCTAGTGCAG | 10400 fluorescence intensity (a.u.)
ACCTGCACACCCACGACACGTCGCGCCGCTCATGCCCTTTCGGAGTCACCTAGTGCAG | 9350 fluorescence intensity (a.u.)
GGTGGTGTTTGGATACAGGGACTGATCCTGTCATATCAGACGGAGTCACCTAGTGCAG | 9620 fluorescence intensity (a.u.)
GTCTCACAGGTACCAACTTTATCACTTTACTAACTTTTTCCGGAGTCACCTAGTGCAG | 11400 fluorescence intensity (a.u.)
AAGTGGTGTTCTTGTTGTGCATTTGAGCCATTTAACCAAACGGAGTCACCTAGTGCAG | 9550 fluorescence intensity (a.u.)
AACCTGTCATTCTCTCCGTTGATATCCAATTTGGCTGATCCGGAGTCACCTAGTGCAG | 8750 fluorescence intensity (a.u.)
GCCAGCTACCATCTTCTTTCTTCCCTTTTCTTCCCGAACGCGGAGTCACCTAGTGCAG | 9080 fluorescence intensity (a.u.)
GGCAAATTCTAGTCATCTATATAAGCAACATAAACATACACGGAGTCACCTAGTGCAG | 8900 fluorescence intensity (a.u.)
CATGAGTTTCCGTGTACAACTTTGATCGTCCGTTTTATTTCGGAGTCACCTAGTGCAG | 9570 fluorescence intensity (a.u.)
CATTACCATACATGGCTGCTAGACCCTACACACGTACTGTCGGAGTCACCTAGTGCAG | 8950 fluorescence intensity (a.u.)
ATTGGAAGTGGTCTTCTGGATTGTTCTAGGCCTGCTTATGCGGAGTCACCTAGTGCAG | 8180 fluorescence intensity (a.u.)
CTCACGCTCTCTCGTCCCCTCCATGCACGGCCTAGCTACCCGGAGTCACCTAGTGCAG | 11200 fluorescence intensity (a.u.)
GAGAAAATGTTGCCACCTTTTGTTGGTTCGCCGTGGTGGCCGGAGTCACCTAGTGCAG | 8440 fluorescence intensity (a.u.)
GGTTTGTTAATATAGTATCAAGTTCATTTGGCTTATTAAACGGAGTCACCTAGTGCAG | 8270 fluorescence intensity (a.u.)
ATTTCTTCGTCTCATCTTCTGATAATTTACTCCAGTTTACCGGAGTCACCTAGTGCAG | 9630 fluorescence intensity (a.u.)
TCCTCCTCTGCCTCTGCCTCCAGGCCGCCTCCACACCACTCGGAGTCACCTAGTGCAG | 8780 fluorescence intensity (a.u.)
GTGCGTATGTGTTGTGAGTATCTGTGTTGTACTGTGTAATCGGAGTCACCTAGTGCAG | 10300 fluorescence intensity (a.u.)
CCATTGCCATCTCTAGGAACAACACCAATGCCGAGATCAGCGGAGTCACCTAGTGCAG | 8260 fluorescence intensity (a.u.)

A different layout for some results above:
Sequence	binding signal
TGTTATGTATACACAGATTACTCAAAATTGTTGTACTGTCCGGAGTCACCTAGTGCAG	8040 fluorescence intensity (a.u.)
CCCACCCACCACCCACGAATTCTTGCACTACACATCAGATCGGAGTCACCTAGTGCAG	9560 fluorescence intensity (a.u.)
TCCCTCCCGTCTCGTCTCCGCTCATTGCGCCATCTCGCGCCGGAGTCACCTAGTGCAG	8660 fluorescence intensity (a.u.)
GATCAATATTGTGTGACTTTTTTAAACCTGCCTGCTTATTCGGAGTCACCTAGTGCAG	10400 fluorescence intensity (a.u.)
ACCTGCACACCCACGACACGTCGCGCCGCTCATGCCCTTTCGGAGTCACCTAGTGCAG	9350 fluorescence intensity (a.u.)
GGTGGTGTTTGGATACAGGGACTGATCCTGTCATATCAGACGGAGTCACCTAGTGCAG	9620 fluorescence intensity (a.u.)
GTCTCACAGGTACCAACTTTATCACTTTACTAACTTTTTCCGGAGTCACCTAGTGCAG	11400 fluorescence intensity (a.u.)
AAGTGGTGTTCTTGTTGTGCATTTGAGCCATTTAACCAAACGGAGTCACCTAGTGCAG	9550 fluorescence intensity (a.u.)
AACCTGTCATTCTCTCCGTTGATATCCAATTTGGCTGATCCGGAGTCACCTAGTGCAG	8750 fluorescence intensity (a.u.)
GCCAGCTACCATCTTCTTTCTTCCCTTTTCTTCCCGAACGCGGAGTCACCTAGTGCAG	9080 fluorescence intensity (a.u.)
GGCAAATTCTAGTCATCTATATAAGCAACATAAACATACACGGAGTCACCTAGTGCAG	8900 fluorescence intensity (a.u.)
CATGAGTTTCCGTGTACAACTTTGATCGTCCGTTTTATTTCGGAGTCACCTAGTGCAG	9570 fluorescence intensity (a.u.)
